{
  "source": "patent US20160368992A1",
  "about": "“A METHOD OF INCREASING GIPCR SIGNALIZATION IN THE CELLS OF A SCOLIOTIC SUBJECT” (CHU SAINTE-JUSTINE, priority 2013, published 2016)",
  "tested_on": "Gi1, Gi2, Gi3 proteins",
  "test": "Immunoprecipitation/Western blot: phosphorylation of Gi proteins in MC3T3-E1 cells",
  "format": "cell-based",
  "settings": "MC3T3-E1 treated with rOPN in presence of kinase inhibitor",
  "description": "Given that the defective GiPCR signaling associated with idiopathic scoliosis has causatively been related to increased phosphorylation of Gi proteins (Moreau et al., 2004), it was of interest to examined whether OPN influences the phosphorylation status of Gi proteins. Accordingly, MC3T3-E1 cells were treated with rOPN, then cell lysates were immunoprecipitated with antibodies against Gi1, Gi2 or Gi3 protein isoforms, and the phosphorylation level was examined by Western blot using anti-phospho serine/threonine or anti-tyrosine antibodies. […] However, band density was higher in OPN-treated cells.\nTo support the involvement of α5β1 integrin in this process, cells were pre-treated with antibody against α5β1 integrin prior to rOPN treatment.\nCell extracts prepared from MC3T3-E1 that had been treated with rOPN in the presence or absence of an inhibitor specific for each kinase were subjected to immunoprecipitation and Western blot analysis. […] However, both serine and tyrosine phosphorylation were attenuated by inhibitors of FAK (FAK inhibitor-14), Scr (PP2), CaMKII (KN93), PI3K (wortmannin-data not shown), MEK (PD98059), ERK1/2 (FR180204), JNK (SP60125) and P38 (SB203580).",
  "note": "At least one structure is not confirmed: it was looked up by name or label, or the drawing left a doubt.",
  "data": [
    {"smiles": "COC[C@H]1OC(=O)c2coc3c2[C@@]1(C)C1=C(C3=O)[C@@H]2CCC(=O)[C@@]2(C)C[C@H]1OC(C)=O", "note": "[wortmannin]", "values": [
      {"measurement": "level of serine phosphorylation in the Gi protein precipitates", "result": "attenuated"},
      {"measurement": "tyrosine phosphorylation levels in the Gi protein precipitates", "result": "attenuated"}
    ]}
  ]
}
